The other results are listed elsewhere or left out. The data scatter; read single values as rough.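 Tm was set to 64 °C where no melting was found, and many curves are irregular.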
Compound: CCc1cnccc1C(=O)Nc1cc2c(cc1F)NC(=O)CC2
Assay: melting temperature shift (DMSO Tm minus MBE1-treated Tm) in cellular thermal proteome profiling; higher = less thermal stabilization by MBE1 (negative = stabilized by MBE1)
Details: A375

The chains behind the UniProt entries cited, without tags or fusion partners. Where a name states a change or a piece, a line headed by the entry shows the natural chain unless it says otherwise.
UniProt Q9Y6C9: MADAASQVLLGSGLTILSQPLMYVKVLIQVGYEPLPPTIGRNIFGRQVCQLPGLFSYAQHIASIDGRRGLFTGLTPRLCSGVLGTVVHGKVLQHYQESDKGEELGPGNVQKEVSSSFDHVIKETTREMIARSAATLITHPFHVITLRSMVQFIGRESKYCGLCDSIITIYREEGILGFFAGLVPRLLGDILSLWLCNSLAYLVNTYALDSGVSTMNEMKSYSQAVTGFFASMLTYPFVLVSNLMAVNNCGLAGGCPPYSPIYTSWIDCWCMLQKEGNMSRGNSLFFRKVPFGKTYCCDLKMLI
UniProt Q9Y485, whole entry: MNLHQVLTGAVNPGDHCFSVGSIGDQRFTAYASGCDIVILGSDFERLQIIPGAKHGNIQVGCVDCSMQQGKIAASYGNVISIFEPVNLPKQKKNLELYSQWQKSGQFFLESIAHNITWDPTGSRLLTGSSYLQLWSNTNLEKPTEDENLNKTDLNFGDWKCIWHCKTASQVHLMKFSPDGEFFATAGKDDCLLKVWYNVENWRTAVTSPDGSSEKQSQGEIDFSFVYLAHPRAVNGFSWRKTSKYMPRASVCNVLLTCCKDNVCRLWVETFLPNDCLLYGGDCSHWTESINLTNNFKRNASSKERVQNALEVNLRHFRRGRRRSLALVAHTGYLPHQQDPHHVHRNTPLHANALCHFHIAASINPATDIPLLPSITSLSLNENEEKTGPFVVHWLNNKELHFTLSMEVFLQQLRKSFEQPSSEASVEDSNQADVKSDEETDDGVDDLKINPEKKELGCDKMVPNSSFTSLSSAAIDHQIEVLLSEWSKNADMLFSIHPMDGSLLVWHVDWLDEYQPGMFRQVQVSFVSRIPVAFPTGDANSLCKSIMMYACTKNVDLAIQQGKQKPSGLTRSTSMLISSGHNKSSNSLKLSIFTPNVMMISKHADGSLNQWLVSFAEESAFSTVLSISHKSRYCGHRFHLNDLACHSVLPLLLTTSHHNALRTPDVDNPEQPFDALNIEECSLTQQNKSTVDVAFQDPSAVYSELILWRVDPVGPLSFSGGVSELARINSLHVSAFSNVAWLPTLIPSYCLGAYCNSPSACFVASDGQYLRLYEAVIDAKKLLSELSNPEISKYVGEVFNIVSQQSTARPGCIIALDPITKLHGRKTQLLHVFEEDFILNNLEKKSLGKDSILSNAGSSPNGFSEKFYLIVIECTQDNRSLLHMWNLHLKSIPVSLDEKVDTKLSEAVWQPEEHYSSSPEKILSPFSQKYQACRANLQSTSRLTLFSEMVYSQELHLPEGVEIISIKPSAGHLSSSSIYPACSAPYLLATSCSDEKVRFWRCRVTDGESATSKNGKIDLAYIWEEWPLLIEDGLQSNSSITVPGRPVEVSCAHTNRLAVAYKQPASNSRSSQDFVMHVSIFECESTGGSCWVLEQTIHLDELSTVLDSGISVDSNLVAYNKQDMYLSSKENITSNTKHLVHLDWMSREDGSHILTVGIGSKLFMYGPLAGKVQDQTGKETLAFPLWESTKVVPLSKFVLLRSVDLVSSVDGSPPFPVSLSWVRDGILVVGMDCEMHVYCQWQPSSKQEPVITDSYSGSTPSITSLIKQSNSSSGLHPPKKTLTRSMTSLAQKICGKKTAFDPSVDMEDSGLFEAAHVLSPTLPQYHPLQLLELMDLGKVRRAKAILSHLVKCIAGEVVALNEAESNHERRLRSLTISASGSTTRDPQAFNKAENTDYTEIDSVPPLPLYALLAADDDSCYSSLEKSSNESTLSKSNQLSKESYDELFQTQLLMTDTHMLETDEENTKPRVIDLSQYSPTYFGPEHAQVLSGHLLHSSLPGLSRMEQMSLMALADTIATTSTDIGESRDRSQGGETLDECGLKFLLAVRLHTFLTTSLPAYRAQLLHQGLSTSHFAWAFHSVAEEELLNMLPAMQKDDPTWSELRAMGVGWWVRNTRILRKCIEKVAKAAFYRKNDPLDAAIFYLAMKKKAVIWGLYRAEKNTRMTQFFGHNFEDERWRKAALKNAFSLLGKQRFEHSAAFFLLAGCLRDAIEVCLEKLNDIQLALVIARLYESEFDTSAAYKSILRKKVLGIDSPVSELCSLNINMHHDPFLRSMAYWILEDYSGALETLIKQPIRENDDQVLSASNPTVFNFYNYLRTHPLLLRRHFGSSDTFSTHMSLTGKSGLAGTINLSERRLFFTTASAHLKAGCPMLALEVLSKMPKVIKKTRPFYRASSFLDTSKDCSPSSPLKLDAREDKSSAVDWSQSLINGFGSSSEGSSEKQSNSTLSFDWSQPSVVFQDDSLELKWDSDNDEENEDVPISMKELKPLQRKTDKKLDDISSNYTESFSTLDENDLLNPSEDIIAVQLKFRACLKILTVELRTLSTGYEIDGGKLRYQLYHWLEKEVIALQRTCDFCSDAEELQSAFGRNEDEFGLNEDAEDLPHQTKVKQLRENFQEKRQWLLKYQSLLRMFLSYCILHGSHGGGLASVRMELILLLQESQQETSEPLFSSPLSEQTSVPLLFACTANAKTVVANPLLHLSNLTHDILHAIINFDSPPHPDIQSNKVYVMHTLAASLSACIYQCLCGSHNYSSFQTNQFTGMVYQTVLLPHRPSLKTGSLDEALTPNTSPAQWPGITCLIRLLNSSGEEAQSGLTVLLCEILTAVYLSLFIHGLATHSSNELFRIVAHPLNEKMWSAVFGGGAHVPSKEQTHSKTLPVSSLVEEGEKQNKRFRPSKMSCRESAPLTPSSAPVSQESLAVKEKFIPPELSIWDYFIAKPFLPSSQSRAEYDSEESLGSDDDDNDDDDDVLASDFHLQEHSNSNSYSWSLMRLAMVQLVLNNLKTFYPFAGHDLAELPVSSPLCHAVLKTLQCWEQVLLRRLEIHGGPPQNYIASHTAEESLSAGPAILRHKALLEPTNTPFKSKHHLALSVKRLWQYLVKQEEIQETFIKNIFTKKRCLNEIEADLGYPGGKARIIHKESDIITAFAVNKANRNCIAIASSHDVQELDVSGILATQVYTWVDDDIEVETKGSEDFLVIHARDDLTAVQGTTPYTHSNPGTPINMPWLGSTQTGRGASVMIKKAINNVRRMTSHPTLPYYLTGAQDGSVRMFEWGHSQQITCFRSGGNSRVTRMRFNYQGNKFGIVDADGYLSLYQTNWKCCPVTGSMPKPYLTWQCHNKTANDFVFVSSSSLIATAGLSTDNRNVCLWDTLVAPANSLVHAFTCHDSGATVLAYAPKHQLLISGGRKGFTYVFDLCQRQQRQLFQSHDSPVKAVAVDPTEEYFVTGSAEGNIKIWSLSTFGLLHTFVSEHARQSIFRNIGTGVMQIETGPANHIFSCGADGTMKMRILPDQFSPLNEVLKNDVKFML
UniProt Q9Y5L0: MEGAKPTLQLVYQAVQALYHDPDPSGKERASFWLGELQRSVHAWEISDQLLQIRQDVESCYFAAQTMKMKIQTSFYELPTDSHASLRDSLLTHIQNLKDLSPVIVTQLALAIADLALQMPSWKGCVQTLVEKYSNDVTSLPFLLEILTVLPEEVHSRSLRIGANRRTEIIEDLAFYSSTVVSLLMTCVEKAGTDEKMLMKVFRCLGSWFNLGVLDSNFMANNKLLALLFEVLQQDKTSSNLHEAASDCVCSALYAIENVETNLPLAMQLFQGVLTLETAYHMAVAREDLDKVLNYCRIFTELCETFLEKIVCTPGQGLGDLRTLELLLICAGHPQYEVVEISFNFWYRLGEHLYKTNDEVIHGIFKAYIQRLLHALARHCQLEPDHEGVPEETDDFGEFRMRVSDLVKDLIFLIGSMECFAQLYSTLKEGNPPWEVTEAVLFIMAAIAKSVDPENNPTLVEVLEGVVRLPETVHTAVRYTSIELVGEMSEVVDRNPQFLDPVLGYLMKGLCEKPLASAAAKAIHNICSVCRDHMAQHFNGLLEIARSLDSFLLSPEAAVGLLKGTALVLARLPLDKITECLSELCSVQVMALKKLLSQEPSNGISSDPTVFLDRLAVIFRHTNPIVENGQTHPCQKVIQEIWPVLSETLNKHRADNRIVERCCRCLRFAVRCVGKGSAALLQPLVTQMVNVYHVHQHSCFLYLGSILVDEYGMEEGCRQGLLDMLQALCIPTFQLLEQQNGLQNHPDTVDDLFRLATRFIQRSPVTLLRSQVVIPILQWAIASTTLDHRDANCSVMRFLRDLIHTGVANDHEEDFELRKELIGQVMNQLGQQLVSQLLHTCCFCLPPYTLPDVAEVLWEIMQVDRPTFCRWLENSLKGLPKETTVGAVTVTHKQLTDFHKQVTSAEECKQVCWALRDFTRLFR
UniProt Q9Y2Z0: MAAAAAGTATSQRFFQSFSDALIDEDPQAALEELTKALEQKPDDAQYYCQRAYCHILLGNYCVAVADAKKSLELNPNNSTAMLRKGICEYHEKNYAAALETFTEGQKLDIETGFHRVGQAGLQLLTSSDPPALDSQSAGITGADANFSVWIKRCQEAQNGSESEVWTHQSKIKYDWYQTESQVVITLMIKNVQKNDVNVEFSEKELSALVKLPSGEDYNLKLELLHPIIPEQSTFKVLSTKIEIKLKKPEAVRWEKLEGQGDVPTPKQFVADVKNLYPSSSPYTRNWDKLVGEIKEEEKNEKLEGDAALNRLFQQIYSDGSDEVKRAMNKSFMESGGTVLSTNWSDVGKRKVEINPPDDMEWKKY
UniProt Q9Y3Q3: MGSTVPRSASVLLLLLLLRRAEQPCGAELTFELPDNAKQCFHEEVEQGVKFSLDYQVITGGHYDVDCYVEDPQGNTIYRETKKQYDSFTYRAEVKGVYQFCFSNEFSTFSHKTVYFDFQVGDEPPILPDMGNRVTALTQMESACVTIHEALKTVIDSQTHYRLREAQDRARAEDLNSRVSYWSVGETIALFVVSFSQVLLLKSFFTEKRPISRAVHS
UniProt Q9Y484: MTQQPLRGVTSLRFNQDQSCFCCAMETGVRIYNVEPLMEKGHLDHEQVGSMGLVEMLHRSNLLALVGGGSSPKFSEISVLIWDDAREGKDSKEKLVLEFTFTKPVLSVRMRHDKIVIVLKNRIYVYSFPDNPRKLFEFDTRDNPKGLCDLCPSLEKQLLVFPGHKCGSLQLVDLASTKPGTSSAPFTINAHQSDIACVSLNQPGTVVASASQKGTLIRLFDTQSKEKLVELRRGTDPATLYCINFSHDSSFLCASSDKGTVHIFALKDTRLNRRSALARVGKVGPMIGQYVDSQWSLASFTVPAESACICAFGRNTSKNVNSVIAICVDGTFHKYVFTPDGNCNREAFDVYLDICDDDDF
UniProt Q9Y5X2: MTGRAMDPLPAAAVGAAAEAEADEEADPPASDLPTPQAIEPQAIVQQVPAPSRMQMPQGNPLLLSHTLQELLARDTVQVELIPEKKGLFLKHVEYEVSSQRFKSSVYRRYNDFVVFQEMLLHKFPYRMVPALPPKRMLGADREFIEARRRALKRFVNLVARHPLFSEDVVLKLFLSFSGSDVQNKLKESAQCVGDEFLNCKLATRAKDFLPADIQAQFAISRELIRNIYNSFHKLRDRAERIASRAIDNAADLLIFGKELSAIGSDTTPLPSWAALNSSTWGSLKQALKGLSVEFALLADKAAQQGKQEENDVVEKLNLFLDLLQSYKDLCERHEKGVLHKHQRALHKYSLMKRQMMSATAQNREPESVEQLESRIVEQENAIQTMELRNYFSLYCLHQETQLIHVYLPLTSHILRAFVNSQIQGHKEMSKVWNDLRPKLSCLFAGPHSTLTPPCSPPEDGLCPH

Target	melting temperature shift (MBE1 concentration: 100 nM)	melting temperature shift (MBE1 concentration: 1 uM)
LRCH1 (UniProt Q9Y2L9)	-0.542 °C	-0.173 °C
WIPI2 (UniProt Q9Y4P8)	0.116 °C	-0.0672 °C
EXOSC1 (UniProt Q9Y3B2)	-0.837 °C	-0.216 °C
CDC42BPB (UniProt Q9Y5S2)	0.177 °C	-0.0916 °C
SUPT16H (UniProt Q9Y5B9)	-0.186 °C	-0.173 °C
MRPS16 (UniProt Q9Y3D3)	0.0513 °C	0.0565 °C
AMDHD2 (UniProt Q9Y303)	0.981 °C	-0.55 °C
UniProt Q9Y6J9	-0.615 °C	-0.884 °C
CARHSP1 (UniProt Q9Y2V2)	-1.96 °C	1.92 °C
SAR1B (UniProt Q9Y6B6)	-1.1 °C	-1.33 °C
MYO5A (UniProt Q9Y4I1)	-0.607 °C	-0.692 °C
TPRKB (UniProt Q9Y3C4)	-1.14 °C	1.29 °C
KDM3A (UniProt Q9Y4C1)	-0.901 °C	-0.484 °C
MRPS23 (UniProt Q9Y3D9)	-0.607 °C	-0.302 °C
YTHDF2 (UniProt Q9Y5A9)	-0.147 °C	0.336 °C
RAP2C (UniProt Q9Y3L5)	-4 °C	-5.42 °C
SNX5 (UniProt Q9Y5X3)	-0.36 °C	0.293 °C
UniProt Q9Y3M8	-0.0794 °C	-1.7 °C
YARS2 (UniProt Q9Y2Z4)	-0.621 °C	-0.256 °C
CAB39 (UniProt Q9Y376)	-0.922 °C	-0.0427 °C

3 entries from above, comma-delimited.
Target,melting temperature shift (MBE1 concentration: 100 nM),melting temperature shift (MBE1 concentration: 1 uM)
CDC42BPB (UniProt Q9Y5S2),0.177 °C,-0.0916 °C
SUPT16H (UniProt Q9Y5B9),-0.186 °C,-0.173 °C
CARHSP1 (UniProt Q9Y2V2),-1.96 °C,1.92 °C

Next part

Target	melting temperature shift (MBE1 concentration: 100 nM)	melting temperature shift (MBE1 concentration: 1 uM)
SAMM50 (UniProt Q9Y512)	-3.62 °C	-2.83 °C
KIF3A (UniProt Q9Y496)	1.31 °C	0.647 °C
MAP3K4 (UniProt Q9Y6R4)	0.055 °C	-0.495 °C
MTCH2 (UniProt Q9Y6C9)	0.0244 °C	-0.14 °C
UniProt Q9Y5J7	0.315 °C	0.484 °C
UniProt Q9Y2J4	1.15 °C	1.37 °C
UniProt Q9Y2K6	0.134 °C	-3.03 °C
PTRH2 (UniProt Q9Y3E5)	-0.542 °C	0.562 °C
NOSIP (UniProt Q9Y314)	-0.448 °C	-0.359 °C
AFG3L2 (UniProt Q9Y4W6)	-0.122 °C	0.33 °C
DMXL1 (UniProt Q9Y485)	0.208 °C	0.177 °C
RCL1 (UniProt Q9Y2P8)	1.32 °C	0.336 °C
LRRFIP2 (UniProt Q9Y608)	-4.13 °C	-3.44 °C
TNPO3 (UniProt Q9Y5L0)	0.488 °C	0.629 °C
SUGT1 (UniProt Q9Y2Z0)	-0.734 °C	0.0183 °C
GMEB1 (UniProt Q9Y692)	-2.33 °C	-3.02 °C
MRPL42 (UniProt Q9Y6G3)	-3.93 °C	1.16 °C
UniProt Q9Y6K8	-1.23 °C	0.212 °C
HSPB11 (UniProt Q9Y547)	-0.168 °C	0.00671 °C
TMED3 (UniProt Q9Y3Q3)	0.778 °C	2.01 °C

Target	melting temperature shift (MBE1 concentration: 100 nM)	melting temperature shift (MBE1 concentration: 1 uM)
UniProt Q9Y3A2	1.03 °C	0.0128 °C
PUS1 (UniProt Q9Y606)	-0.179 °C	-0.474 °C
STRAP (UniProt Q9Y3F4)	-1.29 °C	0.208 °C
PRELID3B (UniProt Q9Y3B1)	1.26 °C	0.305 °C
WDR45 (UniProt Q9Y484)	0.57 °C	0.923 °C
NME7 (UniProt Q9Y5B8)	-1.28 °C	0 °C
AK6 (UniProt Q9Y3D8)	-0.594 °C	0.122 °C
USP3 (UniProt Q9Y6I4)	-0.226 °C	-0.0188 °C
TSC22D4 (UniProt Q9Y3Q8)	-0.977 °C	0.336 °C
ATP6V1D (UniProt Q9Y5K8)	0.136 °C	0.656 °C
PAXBP1 (UniProt Q9Y5B6)	-1.06 °C	-0.34 °C
AUP1 (UniProt Q9Y679)	-0.104 °C	-0.11 °C
RTCB (UniProt Q9Y3I0)	0.293 °C	0.385 °C
SNX8 (UniProt Q9Y5X2)	-0.812 °C	0.11 °C
CD2AP (UniProt Q9Y5K6)	-0.55 °C	-0.758 °C
NUBP2 (UniProt Q9Y5Y2)	-1.94 °C	-2.82 °C
UniProt Q9Y2K2	-0.765 °C	-0.305 °C
ARIH1 (UniProt Q9Y4X5)	-1.36 °C	-0.208 °C
NCOA3 (UniProt Q9Y6Q9)	-0.423 °C	-1.07 °C

Reference: the supplement of paper PMC12595434, “Development of retinoid nuclear receptor pathway antagonists through targeting aldehyde dehydrogenase 1A3” (iScience, 2025)
